Test results published in publication PMC5821868.
Results are given in words; binding and its absence hold for the method and conditions named. Some results given as binding are weak or reduced against the parent protein; the word gives no strength. Where a sequence is shown, tags or fusion partners need not be part of it.

Protein sequences, listed by entry. Tags and fused reporters are not part of them. Residues count along the entry.
UniProt Q8N423, residues 22-597: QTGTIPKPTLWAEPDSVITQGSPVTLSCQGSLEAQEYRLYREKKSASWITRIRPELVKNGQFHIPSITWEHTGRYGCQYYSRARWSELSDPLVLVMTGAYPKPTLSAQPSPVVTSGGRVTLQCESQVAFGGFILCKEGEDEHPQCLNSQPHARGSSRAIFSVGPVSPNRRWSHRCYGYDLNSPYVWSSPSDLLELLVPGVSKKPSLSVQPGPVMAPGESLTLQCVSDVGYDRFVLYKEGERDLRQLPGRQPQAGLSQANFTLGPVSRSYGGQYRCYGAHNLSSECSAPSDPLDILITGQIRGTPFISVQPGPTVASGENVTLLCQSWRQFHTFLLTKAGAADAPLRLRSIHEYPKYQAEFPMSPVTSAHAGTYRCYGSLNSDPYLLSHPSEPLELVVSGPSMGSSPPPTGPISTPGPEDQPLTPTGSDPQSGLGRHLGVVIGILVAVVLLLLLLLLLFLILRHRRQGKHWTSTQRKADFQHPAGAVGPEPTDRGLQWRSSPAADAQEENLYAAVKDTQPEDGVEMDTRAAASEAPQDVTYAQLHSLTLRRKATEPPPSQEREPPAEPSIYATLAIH

Legend:
[1] = target: ILT-4 expressed on transfected 293T cells (human) (UniProt Q8N423); assay: flow cytometry on cells; ILT-4-transfected 293T cells stained with SEMA4A-Fc, with or without an excess of ILT-4-Fc or mIgG; hIgG as control; only the binder purified
[2] = target: ILT-4 on activated human CD4+ T cells (human (endogenous in activated CD4+ T cells)) (UniProt Q8N423); assay: flow cytometry on cells; purified naive human CD4+ T cells activated with immobilized anti-CD3 and anti-CD28 for 1 day, stained with SEMA4A-Fc with or without an excess of ILT-4-Fc, or with anti-ILT-4 mAb with or without an excess of SEMA4A-Fc; only the binder purified
[3] = target: ILT-4 expressed on transfected 293T cells (human) (UniProt Q8N423); assay: receptor array on transfected cells (Applied Biosystems 8200 cellular detection system); 293T cells transfected with plasmids of human transmembrane genes in 384-well plates; 50 ng SEMA4A-Fc and 50 ng anti-human Ig FMAT blue secondary antibody per well; read 24 h after transfection; only the binder purified
[4] = target: ILT-4 expressed on H9 cells from the retroviral cDNA library of activated CD4+ T cells (human) (UniProt Q8N423); assay: flow cytometry on cells; expression cloning: H9 cells infected with a retroviral cDNA library of activated CD4+ T cells, stained with APC-conjugated SEMA4A-Fc; six rounds of sorting; insert cloned by PCR and sequenced; only the binder purified

Measured: binding

B1: recombinant human SEMA4A-Fc fusion protein (R&D Systems) (Fc fusion, UniProt Q9H3S1 33-683)
chain: GGGQGPMPRVRYYAGDERRALSFFHQKGLQDFDTLLLSGDGNTLYVGAREAILALDIQDPGVPRLKNMIPWPASDRKKSECAFKKKSNETQCFNFIRVLVSYNVTHLYTCGTFAFSPACTFIELQDSYLLPISEDKVMEGKGQSPFDPAHKHTAVLVDGMLYSGTMNNFLGSEPILMRTLGSQPVLKTDNFLRWLHHDASFVAAIPSTQVVYFFFEETASEFDFFERLHTSRVARVCKNDVGGEKLLQKKWTTFLKAQLLCTQPGQLPFNVIRHAVLLPADSPTAPHIYAVFTSQWQVGGTRSSAVCAFSLLDIERVFKGKYKELNKETSRWTTYRGPETNPRPGSCSVGPSSDKALTFMKDHFLMDEQVVGTPLLVKSGVEYTRLAVETAQGLDGHSHLVMYLGTTTGSLHKAVVSGDSSAHLVEEIQLFPDPEPVRNLQLAPTQGAVFVGFSGGVWRVPRANCSVYESCVDCVLARDPHCAWDPESRTCCLLSAPNLNSWKQDMERGNPEWACASGPMSRSLRPQSRPQIIKEVLAVPNSILELPCPHLSALASYYWSHGPAAVPEASSTVYNGSLLLIVQDGVGGLYQCWATENGFSYPVISYWVDSQDQTLALDPELAGIPREHVKVPLTRVSGGAALAAQQSYWPH
binds: all assays above
